We go through six molecules from the supplement of paper PMC10689618.

Structures can show the parent of a compound that is named as a salt. The list shows a part of the results. Repeats are few or missing, and single values can be far off.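 Labelled rat cortical synaptosomes were engulfed by primary human fetal astrocytes. Engulfment equaled a red/green ratio, corrected for calcein live-cell signal and normalized to the plate median. Compounds were toxic when calcein dropped over 30%, and reduced phagocytosis when below 70% of the median above 5 µM.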

What all share (settings): 24 h
The subject of experiment [1] is Human fetal astrocytes. Nature of the experiment: loss of total cells relative to no-compound high-control median (toxicity); higher = more toxic (fewer cells).
Experiment [2] has as its system Human fetal astrocytes. The experiment is described as above. This is another data set of the same source.
The subject of experiment [3] is Human fetal astrocytes. The experiment in a line: synaptosome phagocytosis (pHrodo/calcein intensity ratio) relative to plate median of data wells; higher = more phagocytosis.
Experiment [4] has as its system Human fetal astrocytes. Described as above. The source holds these as a separate data set.

Regarding `NCC(O)c1ccc(O)cc1` (racemic) [(±)-Octopamine hydrochloride], the “loss of total cells” value is -5.2% in the experiment on Human fetal astrocytes [1] (1.39 µM); -1.4% with Human fetal astrocytes [1] (2.78 µM); 4.2% in the experiment on Human fetal astrocytes [1] (5.56 µM); -24.8% in the experiment on Human fetal astrocytes [1] (11.11 µM); -12.1% in the experiment on Human fetal astrocytes [1] (22.22 µM); 3.2% in the experiment with Human fetal astrocytes [2] (1.39 µM). The “loss of total cells” value in the experiment on Human fetal astrocytes [2] (2.78 µM) came out at 12.6%; in the experiment with Human fetal astrocytes [2] (5.56 µM) it was 5.8%; with Human fetal astrocytes [2] (11.11 µM), 7.9%; with Human fetal astrocytes [2] (22.22 µM), 11.4%. The synaptosome phagocytosis is 126% in the experiment on Human fetal astrocytes [3] (1.39 µM); 140% with Human fetal astrocytes [3] (2.78 µM); 88.5% in the experiment with Human fetal astrocytes [3] (5.56 µM); 112% with Human fetal astrocytes [3] (11.11 µM); 95.9% in the experiment with Human fetal astrocytes [3] (22.22 µM); 119% in the experiment on Human fetal astrocytes [4] (1.39 µM). In addition, the synaptosome phagocytosis in the experiment on Human fetal astrocytes [4] (2.78 µM) was 104%; in the experiment with Human fetal astrocytes [4] (5.56 µM), 129%; with Human fetal astrocytes [4] (11.11 µM), 99.1%; in the experiment with Human fetal astrocytes [4] (22.22 µM), 142%.

For the molecule `C[N+]1(C)[C@@H]2CC[C@H]1C[C@@H](OC(=O)C(CO)c1ccccc1)C2` (stereo not given in full) [Atropine methyl bromide], the “loss of total cells” value was -17.2% in the experiment on Human fetal astrocytes [1] (1.39 µM); -11.1% in the experiment on Human fetal astrocytes [1] (2.78 µM); -1.4% in the experiment with Human fetal astrocytes [1] (5.56 µM); -10.3% in the experiment on Human fetal astrocytes [1] (11.11 µM); -9.4% with Human fetal astrocytes [1] (22.22 µM); 28.2% in the experiment with Human fetal astrocytes [2] (1.39 µM). The “loss of total cells” value in the experiment on Human fetal astrocytes [2] (2.78 µM) was -48.4%; in the experiment with Human fetal astrocytes [2] (5.56 µM) it was -11.2%; in the experiment on Human fetal astrocytes [2] (11.11 µM), 8.9%; in the experiment with Human fetal astrocytes [2] (22.22 µM), 4.7%. Further, the synaptosome phagocytosis in the experiment on Human fetal astrocytes [3] (1.39 µM) was 167%; with Human fetal astrocytes [3] (2.78 µM) it was 72.2%; in the experiment on Human fetal astrocytes [3] (5.56 µM), 102%; in the experiment on Human fetal astrocytes [3] (11.11 µM), 78%; in the experiment with Human fetal astrocytes [3] (22.22 µM), 103%; in the experiment with Human fetal astrocytes [4] (1.39 µM) it was 96.9%. The synaptosome phagocytosis with Human fetal astrocytes [4] (2.78 µM) was 98.5%; in the experiment on Human fetal astrocytes [4] (5.56 µM), 108%; in the experiment on Human fetal astrocytes [4] (11.11 µM), 80.4%; in the experiment on Human fetal astrocytes [4] (22.22 µM), 110%.

Regarding `NCCc1c[nH]c2ccc(O)cc12` [Serotonin hydrochloride], the “loss of total cells” value with Human fetal astrocytes [1] (1.39 µM) was 0.4%; with Human fetal astrocytes [1] (2.78 µM) it was -12.8%; in the experiment on Human fetal astrocytes [1] (5.56 µM) it was 0.8%; in the experiment with Human fetal astrocytes [1] (11.11 µM), -5.8%; in the experiment with Human fetal astrocytes [1] (22.22 µM), -6.4%; in the experiment with Human fetal astrocytes [2] (1.39 µM), -19.7%. Besides, the “loss of total cells” value with Human fetal astrocytes [2] (2.78 µM) is -14.8%; in the experiment with Human fetal astrocytes [2] (5.56 µM), -13.9%; with Human fetal astrocytes [2] (11.11 µM), 10.1%; in the experiment on Human fetal astrocytes [2] (22.22 µM), 23.7%. In addition, the synaptosome phagocytosis in the experiment with Human fetal astrocytes [3] (1.39 µM) was 81.2%; in the experiment on Human fetal astrocytes [3] (2.78 µM) it was 104%; with Human fetal astrocytes [3] (5.56 µM) it was 97.9%; in the experiment on Human fetal astrocytes [3] (11.11 µM), 75.9%; in the experiment with Human fetal astrocytes [3] (22.22 µM), 103%; with Human fetal astrocytes [4] (1.39 µM), 89.1%. Moreover, the synaptosome phagocytosis in the experiment on Human fetal astrocytes [4] (2.78 µM) is 111%; in the experiment on Human fetal astrocytes [4] (5.56 µM), 98.7%; in the experiment on Human fetal astrocytes [4] (11.11 µM) it was 115%; with Human fetal astrocytes [4] (22.22 µM), 96.7%.

In the case of `CCC1(c2ccc(N)cc2)CCC(=O)NC1=O` (racemic) [(±)-p-Aminoglutethimide], the “loss of total cells” value in the experiment with Human fetal astrocytes [1] (1.39 µM) was 1.1%; in the experiment with Human fetal astrocytes [1] (2.78 µM), -18%; in the experiment with Human fetal astrocytes [1] (5.56 µM), -10.6%; with Human fetal astrocytes [1] (11.11 µM) it was -22.9%; with Human fetal astrocytes [1] (22.22 µM), 9.4%; in the experiment with Human fetal astrocytes [2] (1.39 µM), -27.4%. Moreover, the “loss of total cells” value is -2.7% with Human fetal astrocytes [2] (2.78 µM), 9.9% with Human fetal astrocytes [2] (5.56 µM), -13.3% in the experiment with Human fetal astrocytes [2] (11.11 µM) and 14.7% in the experiment on Human fetal astrocytes [2] (22.22 µM). In addition, the synaptosome phagocytosis in the experiment on Human fetal astrocytes [3] (1.39 µM) is 94.2%; with Human fetal astrocytes [3] (2.78 µM), 99.7%; in the experiment with Human fetal astrocytes [3] (5.56 µM) it was 112%; in the experiment on Human fetal astrocytes [3] (11.11 µM), 123%; with Human fetal astrocytes [3] (22.22 µM) it was 110%; with Human fetal astrocytes [4] (1.39 µM) it was 125%. Besides, the synaptosome phagocytosis in the experiment with Human fetal astrocytes [4] (2.78 µM) is 108%; in the experiment on Human fetal astrocytes [4] (5.56 µM) it was 115%; in the experiment on Human fetal astrocytes [4] (11.11 µM), 110%; in the experiment with Human fetal astrocytes [4] (22.22 µM), 111%.

Take `CN1[C@@H]2CC[C@H]1C[C@@H](OC(=O)[C@H](CO)c1ccccc1)C2` [L-Hyoscyamine]: the “loss of total cells” value in the experiment with Human fetal astrocytes [1] (1.39 µM) was -16.3%; with Human fetal astrocytes [1] (2.78 µM) it was -23.1%; in the experiment on Human fetal astrocytes [1] (5.56 µM), -28%; in the experiment with Human fetal astrocytes [1] (11.11 µM), -1.3%; in the experiment on Human fetal astrocytes [1] (22.22 µM) it was 1.6%; in the experiment on Human fetal astrocytes [2] (1.39 µM) it was 3.3%. Besides, the “loss of total cells” value with Human fetal astrocytes [2] (2.78 µM) was -3.4%; in the experiment on Human fetal astrocytes [2] (5.56 µM), 8.7%; in the experiment on Human fetal astrocytes [2] (11.11 µM), 5.5%; in the experiment on Human fetal astrocytes [2] (22.22 µM), 0.6%. Moreover, the synaptosome phagocytosis in the experiment with Human fetal astrocytes [3] (1.39 µM) was 121%; with Human fetal astrocytes [3] (2.78 µM), 115%; with Human fetal astrocytes [3] (5.56 µM), 98.9%; in the experiment with Human fetal astrocytes [3] (11.11 µM), 102%; with Human fetal astrocytes [3] (22.22 µM) it was 93.6%; in the experiment with Human fetal astrocytes [4] (1.39 µM) it was 94.1%. In addition, the synaptosome phagocytosis was 124% in the experiment on Human fetal astrocytes [4] (2.78 µM), 95.8% with Human fetal astrocytes [4] (5.56 µM), 90.6% in the experiment with Human fetal astrocytes [4] (11.11 µM) and 112% in the experiment on Human fetal astrocytes [4] (22.22 µM).

Regarding `O=c1c2ccccc2[se]n1-c1ccccc1` [Ebselen], the “loss of total cells” value in the experiment on Human fetal astrocytes [1] (1.39 µM) was 10.5%; in the experiment on Human fetal astrocytes [1] (2.78 µM), 9.4%; in the experiment with Human fetal astrocytes [1] (5.56 µM) it was 10.7%; in the experiment with Human fetal astrocytes [1] (11.11 µM), -1.3%; with Human fetal astrocytes [1] (22.22 µM), 38.4%; with Human fetal astrocytes [2] (1.39 µM), 1.8%. Moreover, the “loss of total cells” value with Human fetal astrocytes [2] (2.78 µM) is 17.7%; in the experiment with Human fetal astrocytes [2] (5.56 µM) it was 19.6%; in the experiment with Human fetal astrocytes [2] (11.11 µM), -4.6%; with Human fetal astrocytes [2] (22.22 µM) it was 20.5%. Moreover, the synaptosome phagocytosis is 67.7% in the experiment on Human fetal astrocytes [3] (1.39 µM); 72.3% in the experiment with Human fetal astrocytes [3] (2.78 µM); 110% with Human fetal astrocytes [3] (5.56 µM); 101% with Human fetal astrocytes [3] (11.11 µM); 120% in the experiment with Human fetal astrocytes [3] (22.22 µM); 129% in the experiment on Human fetal astrocytes [4] (1.39 µM). Further, the synaptosome phagocytosis is 104% in the experiment with Human fetal astrocytes [4] (2.78 µM), 113% in the experiment on Human fetal astrocytes [4] (5.56 µM), 102% with Human fetal astrocytes [4] (11.11 µM) and 59.5% in the experiment on Human fetal astrocytes [4] (22.22 µM).
